According to patent KR20160093502A:
Results are given in words; binding and its absence hold for the method and conditions named. Some entries that bind do so weakly or less than the wild type.

By UniProt entry, the sequences of proteins in these tests, tags left out.
UniProt P07814: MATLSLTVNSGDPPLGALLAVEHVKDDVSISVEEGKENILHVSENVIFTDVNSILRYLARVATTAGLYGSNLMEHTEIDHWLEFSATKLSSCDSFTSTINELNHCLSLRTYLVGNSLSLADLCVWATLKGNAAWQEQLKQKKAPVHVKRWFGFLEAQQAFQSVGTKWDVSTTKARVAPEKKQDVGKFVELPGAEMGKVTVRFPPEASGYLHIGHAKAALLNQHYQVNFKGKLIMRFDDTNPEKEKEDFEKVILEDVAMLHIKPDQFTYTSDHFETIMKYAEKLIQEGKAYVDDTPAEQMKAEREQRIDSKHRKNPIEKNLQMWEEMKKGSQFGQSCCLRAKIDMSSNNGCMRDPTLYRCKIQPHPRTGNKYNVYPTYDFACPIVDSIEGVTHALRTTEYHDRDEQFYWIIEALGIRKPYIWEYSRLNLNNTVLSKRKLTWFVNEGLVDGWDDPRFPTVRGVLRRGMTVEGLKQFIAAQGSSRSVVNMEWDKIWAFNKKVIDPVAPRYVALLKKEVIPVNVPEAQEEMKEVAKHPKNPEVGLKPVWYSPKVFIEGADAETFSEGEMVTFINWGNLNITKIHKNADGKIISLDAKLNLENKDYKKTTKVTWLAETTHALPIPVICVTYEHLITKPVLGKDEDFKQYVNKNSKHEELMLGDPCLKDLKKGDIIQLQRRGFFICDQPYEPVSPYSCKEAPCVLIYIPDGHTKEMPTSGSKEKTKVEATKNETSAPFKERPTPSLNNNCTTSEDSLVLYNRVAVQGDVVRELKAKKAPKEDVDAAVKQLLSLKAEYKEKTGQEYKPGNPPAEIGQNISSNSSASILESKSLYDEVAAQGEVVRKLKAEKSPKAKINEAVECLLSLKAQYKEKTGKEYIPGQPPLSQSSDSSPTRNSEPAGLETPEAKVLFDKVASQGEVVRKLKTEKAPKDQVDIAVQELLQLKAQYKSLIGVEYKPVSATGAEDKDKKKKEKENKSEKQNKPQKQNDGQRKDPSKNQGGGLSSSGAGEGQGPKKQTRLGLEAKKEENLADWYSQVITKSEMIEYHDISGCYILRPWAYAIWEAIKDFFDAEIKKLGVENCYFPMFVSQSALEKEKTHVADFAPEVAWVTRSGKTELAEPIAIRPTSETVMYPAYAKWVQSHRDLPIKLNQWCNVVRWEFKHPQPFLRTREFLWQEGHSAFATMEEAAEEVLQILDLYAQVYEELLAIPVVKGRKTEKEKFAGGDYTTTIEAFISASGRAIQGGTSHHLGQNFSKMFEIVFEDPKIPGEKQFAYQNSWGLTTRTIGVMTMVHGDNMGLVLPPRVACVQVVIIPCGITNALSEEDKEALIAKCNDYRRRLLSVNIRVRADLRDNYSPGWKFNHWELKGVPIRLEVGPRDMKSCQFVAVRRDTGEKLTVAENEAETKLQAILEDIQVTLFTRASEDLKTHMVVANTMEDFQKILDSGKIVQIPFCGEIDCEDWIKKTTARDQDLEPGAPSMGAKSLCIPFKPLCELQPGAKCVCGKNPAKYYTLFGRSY

Biological target: EPRS (glutamyl-prolyl tRNA synthetase), human 세포에서 원래 발현된 EPRS (Hela cell lysate) (human) (UniProt P07814)
Experiment: western blot on HeLa cell lysate (clones from panning on EPRS WHEP domain antigen)

binding: binds
B1: SEQ ID NO 14 (scFv)
scFv: EVQLLESGGGLVQPGGSLGLSCAASGFTFSDYDMSWVRRAPGKGLEWVSAISSGGGNTYYADSVKGRFTISRDNSKNTLYLQMNSLRAEDTAVYYCARNRFVFDYWGQGTLVTVSSGGGGSGGGGSGGGGSQSVLTQPPSASGTPGQRVTISCSGSSSNIGNNAVNWYQQLPGTAPKLLIYANSHRPSGVPDRFSGSKSGTSASLAISGLRSEDEADYYCGTWDYSLNGYVFGGGTKLTVL
